Record: PubChem BioAssay AID1259424 (University of Nebraska Medical Center, 2018)
Test: 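Rank knockdowns across the genome by resemblance to the KSR1 depletion profile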 (primary screen). Cell system: human HCT116 colon cancer cells. Reagents: siRNA pool against human genes, 50 nM. Read-out: 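Six signature mRNAs by branched-DNA multiplex assay, scaled to two housekeeping genes and non-targeting median, log2; matched to mean KSR1 knockdown profile by Pearson correlation and euclidean distance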. Scale: mean correlation with KSR1 profile and KSR1 correlation: higher = expression change more like KSR1 knockdown; mean distance from KSR1 profile: higher = expression change less like KSR1 knockdown.
The whole screen tested about 14,000 reagents; below is a part drawn at random. 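Higher correlation or smaller distance means closer resemblance to KSR1 loss; control wells, including KSR1 knockdowns, recur on many plates.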 Reagent sequences are not shown. The record does not give: the time to read-out.

| Target gene | mean correlation with KSR1 profile | mean distance from KSR1 profile | KSR1 correlation, replicate 1 | KSR1 correlation, replicate 2 | KSR1 correlation, replicate 3 |
| --- | --- | --- | --- | --- | --- |
| PEX26 (GeneID 55670) | -0.727 | 3.13 | -0.605 | -0.696 | -0.769 |
| ADCYAP1R1 (GeneID 117) | 0.83 | 0.961 | 0.788 | 0.824 | 0.796 |
| TTI1 (GeneID 9675) | 0.316 | 2.32 | 0.247 | 0.454 | 0.311 |
| EIF4ENIF1 (GeneID 56478) | -0.551 | 3 | -0.46 | -0.561 | -0.461 |
| FRMD4A (GeneID 55691) | -0.0744 | 2.33 | -0.137 | 0.229 | -0.198 |
| TRPV5 (GeneID 56302) | -0.0923 | 1.05 | 0.14 | 0.371 | -0.388 |
| ZDHHC18 (GeneID 84243) | 0.597 | 3.54 | 0.501 | 0.563 | 0.568 |
| PRTFDC1 (GeneID 56952) | -0.49 | 2.14 | -0.658 | -0.457 | -0.527 |
| PRRG2 (GeneID 5639) | -0.305 | 1.47 | -0.316 | 0.673 | -0.414 |
| SUPT4H1 (GeneID 6827) | 0.48 | 3.67 | 0.494 | 0.508 | 0.587 |
| PPP2CA (GeneID 5515) | 0.519 | 1.93 | 0.656 | 0.638 | 0.134 |
| CYLC1 (GeneID 1538) | 0.0245 | 4.55 | 0.072 | 0.118 | -0.153 |
| ZNF469 (GeneID 84627) | -0.251 | 4.66 | -0.179 | -0.178 | -0.488 |
| PLCL2 (GeneID 23228) | 0.0482 | 3.96 | 0.0508 | 0.084 | 0.0633 |
| TIMP4 (GeneID 7079) | 0.512 | 1.07 | 0.558 | 0.371 | 0.624 |
| RARRES2 (GeneID 5919) | -0.172 | 3.34 | -0.149 | -0.283 | -0.108 |
| YEATS2 (GeneID 55689) | -0.113 | 2.9 | -0.0292 | 0.12 | -0.273 |
| ATP10B (GeneID 23120) | 0.552 | 1.39 | 0.251 | 0.707 | 0.331 |
| MDH1 (GeneID 4190) | 0.453 | 1.16 | 0.252 | 0.363 | 0.361 |
| RNASEH2C (GeneID 84153) | 0.82 | 1.02 | 0.869 | 0.795 | 0.849 |
| RMND5B (GeneID 64777) | -0.41 | 2.41 | -0.502 | -0.324 | -0.137 |
| TYMS (GeneID 7298) | -0.503 | 2.82 | -0.481 | -0.405 | -0.673 |
| ING5 (GeneID 84289) | 0.637 | 1.53 | 0.479 | 0.538 | 0.76 |
| EEF1B2 (GeneID 1933) | 0.469 | 1.82 | 0.34 | 0.612 | 0.437 |
| MMACHC (GeneID 25974) | 0.0264 | 2.35 | 0.228 | -0.106 | -0.134 |
| MUC5AC (GeneID 4586) | 0.0746 | 1.16 | 0.323 | 0.254 | -0.0793 |
| TXN2 (GeneID 25828) | -0.103 | 2.63 | 0.0646 | -0.216 | -0.354 |
| TRAFD1 (GeneID 10906) | 0.0614 | 1.7 | 0.339 | 0.233 | -0.331 |
| HOXB1 (GeneID 3211) | -0.366 | 3.97 | -0.648 | -0.384 | 0.0349 |
| ZNF221 (GeneID 7638) | -0.242 | 3.74 | -0.268 | -0.135 | -0.329 |

Just “mean correlation with KSR1 profile”, for 8 of the entries above:
PRRG2 (GeneID 5639)	-0.305
SUPT4H1 (GeneID 6827)	0.48
PPP2CA (GeneID 5515)	0.519
CYLC1 (GeneID 1538)	0.0245
ZNF469 (GeneID 84627)	-0.251
PLCL2 (GeneID 23228)	0.0482
TIMP4 (GeneID 7079)	0.512
RARRES2 (GeneID 5919)	-0.172

Next records follow:
| Target gene | mean correlation with KSR1 profile | mean distance from KSR1 profile | KSR1 correlation, replicate 1 | KSR1 correlation, replicate 2 | KSR1 correlation, replicate 3 |
| --- | --- | --- | --- | --- | --- |
| PRMT3 (GeneID 10196) | -0.216 | 1.99 | -0.722 | -0.227 | 0.275 |
| PGBD1 (GeneID 84547) | 0.0154 | 2.31 | 0.0243 | 0.11 | -0.348 |
| FNTA (GeneID 2339) | -0.639 | 3.36 | -0.394 | -0.384 | -0.789 |
| USP13 (GeneID 8975) | -0.378 | 1.69 | -0.142 | -0.556 | -0.488 |
| IGF2R (GeneID 3482) | 0.00405 | 3.55 | -0.0723 | -0.143 | 0.0849 |
| MYO1A (GeneID 4640) | -0.223 | 2 | 0.146 | -0.462 | -0.115 |
| ODF1 (GeneID 4956) | 0.357 | 1.33 | 0.674 | 0.597 | 0.105 |
| SPTBN1 (GeneID 6711) | -0.72 | 3.18 | -0.749 | -0.733 | -0.57 |
| GPR68 (GeneID 8111) | 0.708 | 1.77 | 0.658 | 0.743 | 0.723 |
| EMCN (GeneID 51705) | -0.254 | 2.11 | -0.327 | 0.16 | -0.352 |
| SKAP2 (GeneID 8935) | 0.662 | 0.624 | 0.368 | 0.533 | 0.395 |
| ARRDC2 (GeneID 27106) | 0.471 | 1.36 | 0.109 | -0.0935 | 0.176 |
| PENK (GeneID 5179) | -0.146 | 2.14 | 0.0218 | -0.0794 | -0.302 |
| LMAN2 (GeneID 10960) | -0.488 | 2.19 | -0.35 | -0.56 | -0.348 |
| ENKD1 (GeneID 84080) | 0.543 | 1.25 | 0.611 | 0.324 | 0.608 |
| PSMD2 (GeneID 5708) | -0.826 | 2.54 | -0.61 | -0.957 | -0.571 |
| CDK10 (GeneID 8558) | -0.0115 | 1.87 | 0.416 | -0.146 | -0.602 |
| NDUFV3 (GeneID 4731) | -0.833 | 1.96 | -0.349 | -0.876 | -0.581 |
| SERPINE2 (GeneID 5270) | 0.261 | 3.48 | 0.503 | 0.274 | 0.0423 |
| SON (GeneID 6651) | -0.0469 | 4.68 | -0.189 | -0.492 | 0.0866 |
